The values below come from publication PMC13217735.

Amino acid sequences for entries named in this document (tags omitted).
UniProt O15169: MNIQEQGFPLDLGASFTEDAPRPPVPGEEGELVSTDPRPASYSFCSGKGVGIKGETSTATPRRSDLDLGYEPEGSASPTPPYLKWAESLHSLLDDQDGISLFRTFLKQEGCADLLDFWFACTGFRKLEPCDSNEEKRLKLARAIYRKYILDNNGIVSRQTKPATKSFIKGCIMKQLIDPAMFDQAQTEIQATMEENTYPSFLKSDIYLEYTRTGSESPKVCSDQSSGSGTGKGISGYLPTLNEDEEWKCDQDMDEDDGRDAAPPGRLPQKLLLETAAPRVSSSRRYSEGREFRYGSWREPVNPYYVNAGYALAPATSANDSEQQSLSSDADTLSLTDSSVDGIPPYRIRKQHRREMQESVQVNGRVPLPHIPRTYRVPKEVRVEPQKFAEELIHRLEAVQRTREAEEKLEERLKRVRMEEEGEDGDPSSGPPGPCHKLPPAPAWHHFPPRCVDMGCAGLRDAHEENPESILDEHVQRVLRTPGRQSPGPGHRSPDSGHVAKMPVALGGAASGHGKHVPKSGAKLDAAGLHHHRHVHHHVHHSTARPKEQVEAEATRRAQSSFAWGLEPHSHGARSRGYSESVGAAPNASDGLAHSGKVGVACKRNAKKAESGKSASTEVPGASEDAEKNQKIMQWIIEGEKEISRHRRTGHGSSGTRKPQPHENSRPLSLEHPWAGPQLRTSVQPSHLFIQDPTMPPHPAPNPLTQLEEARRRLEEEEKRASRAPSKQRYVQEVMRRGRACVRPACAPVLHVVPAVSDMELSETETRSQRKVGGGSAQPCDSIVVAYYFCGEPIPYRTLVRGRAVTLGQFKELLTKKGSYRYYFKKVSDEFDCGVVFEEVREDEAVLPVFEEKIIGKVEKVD
UniProt P35222: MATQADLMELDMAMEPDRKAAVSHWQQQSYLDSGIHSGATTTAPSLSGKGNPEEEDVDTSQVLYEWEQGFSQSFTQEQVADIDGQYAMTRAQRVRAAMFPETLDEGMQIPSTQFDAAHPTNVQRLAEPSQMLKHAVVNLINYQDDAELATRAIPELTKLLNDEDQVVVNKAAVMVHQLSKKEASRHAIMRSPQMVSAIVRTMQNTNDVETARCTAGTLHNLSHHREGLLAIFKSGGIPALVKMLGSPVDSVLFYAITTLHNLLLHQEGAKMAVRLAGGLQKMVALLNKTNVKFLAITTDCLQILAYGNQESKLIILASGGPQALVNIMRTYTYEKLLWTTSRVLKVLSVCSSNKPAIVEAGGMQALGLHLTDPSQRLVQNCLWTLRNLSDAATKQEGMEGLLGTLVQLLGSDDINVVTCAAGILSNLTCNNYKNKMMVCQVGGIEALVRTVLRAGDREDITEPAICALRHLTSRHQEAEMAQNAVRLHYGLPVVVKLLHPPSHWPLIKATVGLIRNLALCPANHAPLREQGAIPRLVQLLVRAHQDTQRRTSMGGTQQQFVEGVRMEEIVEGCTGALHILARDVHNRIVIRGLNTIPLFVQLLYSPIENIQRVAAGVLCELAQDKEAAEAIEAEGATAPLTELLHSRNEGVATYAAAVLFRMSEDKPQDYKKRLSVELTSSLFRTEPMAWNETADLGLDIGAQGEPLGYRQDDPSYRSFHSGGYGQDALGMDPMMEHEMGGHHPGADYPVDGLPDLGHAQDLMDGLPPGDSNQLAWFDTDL

For the assay, the target named is AXIN1 (human (endogenous in HCT116)) (UniProt O15169). Kind of assay: co-IP; HCT116 lysate (20 mM Tris-HCl, 130 mM NaCl, 10% glycerol, 2 mM EDTA, 1% Triton X-100); AXIN1 or GSK3B antibody on Dynabeads Protein G overnight at 4 °C, six washes with PBS 0.01% Tween-20, immunoblot; cells treated with MEK1/2 or GSK3 inhibitor or DMSO. (Immunoblotting shows a protein as a band on a membrane.)

Results are given in words; binding and its absence hold for the method and conditions named. Binding seen in cells or lysates may run through a third protein. Some entries that bind do so weakly or less than the wild type.

In the case of “beta-catenin (from UniProt P35222 1-781)”, the binding result was “binds”.
